Source: PubChem BioAssay AID1259254 (NCATS, 2017)

Screen: 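Genome-wide screen for genes that prevent DNA re-replication in cancer cells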 (primary screen)
System: human HCT116 colorectal cancer cells
Reagents: single siRNA against human genes
Time to read-out: 3 days
Measured: 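Imaged Hoechst DNA stain sorts each cell into a cycle phase by DNA amount; per plate, G2 fraction set to 0% for non-targeting and 100% for GMNN siRNA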
Scale: G2 robust z-score: higher = more G2 cells, more excess DNA replication
Hit rule: 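Active siRNAs have a G2 robust z of 5 or more median absolute deviations over the median, which in these data means about 38% or higher of GMNN control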
In all, the deposit lists about 59,000 reagents; below is a part drawn at random. In the full data, about 1,550 (2.6%) are marked active. 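G2 share is only a proxy for re-replication; each gene was hit by three separate siRNAs, and active genes were retested.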 The numbers tell different reagents against one gene apart. Not all columns of the deposit are shown. The record does not give: the amount of reagent.

Silencing of GPRIN1 (G protein regulated inducer of neurite outgrowth 1) #1 gave: G2 robust z-score 3.86; inactive. With knock-down of GPRIN1 (G protein regulated inducer of neurite outgrowth 1) #2, the record shows G2 robust z-score 1.23; inactive. For GPRIN1 (G protein regulated inducer of neurite outgrowth 1) #3, the values are G2 robust z-score -0.903; inactive. Against FAM120C (family with sequence similarity 120 member C) #1, the entry reads G2 robust z-score 1.58; inactive. After knock-down of FAM120C (family with sequence similarity 120 member C) #2 the results were G2 robust z-score 0.385; inactive. FAM120C (family with sequence similarity 120 member C) #3 showed G2 robust z-score 1.41; inactive.

Silencing of FRG1 (FSHD region gene 1) #1 gave: G2 robust z-score -0.309; inactive. After knock-down of FRG1 (FSHD region gene 1) #2, the screen gave G2 robust z-score 1.17; inactive. With knock-down of FRG1 (FSHD region gene 1) #3, the screen gave G2 robust z-score -0.793; inactive. Knock-down of SNX31 (sorting nexin 31) #1 gave: G2 robust z-score -0.338; inactive. SNX31 (sorting nexin 31) #2 scored G2 robust z-score 0.583; inactive. For SNX31 (sorting nexin 31) #3, the values are G2 robust z-score 0.884; inactive.

Look-ups from above.
FAM120C (family with sequence similarity 120 member C) #3, Outcome: inactive
Entry of GPRIN1 (G protein regulated inducer of neurite outgrowth 1) #3 in “G2 robust z-score”: -0.903
FRG1 (FSHD region gene 1) #2, Outcome: inactive

The listing continues:
For ZNF789 (zinc finger protein 789) #1 the deposit lists G2 robust z-score 3.72; inactive. For ZNF789 (zinc finger protein 789) #2, the entry reads G2 robust z-score 2.02; inactive. ZNF789 (zinc finger protein 789) #3 gave G2 robust z-score -1.07; inactive. OR52E2 (olfactory receptor family 52 subfamily E member 2) #1 gave G2 robust z-score -0.155; inactive. OR52E2 (olfactory receptor family 52 subfamily E member 2) #2 gave G2 robust z-score 1.06; inactive. OR52E2 (olfactory receptor family 52 subfamily E member 2) #3 scored G2 robust z-score -0.0647; inactive.

MYH8 (myosin heavy chain 8) #1 scored G2 robust z-score -1; inactive. For MYH8 (myosin heavy chain 8) #2 the deposit lists G2 robust z-score 0.152; inactive. MYH8 (myosin heavy chain 8) #3 scored G2 robust z-score -0.108; inactive. For AKAP13 (A-kinase anchoring protein 13) #1 the deposit lists G2 robust z-score -0.0708; inactive. With knock-down of AKAP13 (A-kinase anchoring protein 13) #2 the results were G2 robust z-score 1.36; inactive. After knock-down of AKAP13 (A-kinase anchoring protein 13) #3, the record shows G2 robust z-score -0.716; inactive.
